Measurements reported in patent US20250340701A1, “DENDRIMER-DELIVERED ALPHA-PARTICLE RADIOTHERAPY FOR TREATMENT OF GLIOBLASTOMA AND OTHER CANCERS IN THE BRAIN” (priority 2022, published 2025).
At least one structure is not confirmed: it was looked up by name or label, or the drawing left a doubt.

Test system: intracranial GL261 glioblastoma tumors
Assay: Survival of mice with intracranial GL261 glioblastoma tumors
Format: in vivo, C57BL/6 mice

`Cn1nnc2c(C(N)=O)ncn2c1=O` [TMZ, temozolomide] was tested, and the “survival versus no treatment” value (Example 1, 80 mg/Kg i.p. on day 10 post tumor inoculation, p-value=0.011 (FIG. 5)) was “provides survival advantage” and the “survival versus no treatment” value (Example 2, TMZ alone, 80 mg/kg i.p., FIG. 16 right) was “did not have any effect on animal survival”.
